PubChem BioAssay AID1224826, NIAID – 2016
Screen: 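Genes that change LPS-induced Tnf promoter activity in mouse macrophages when knocked down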 (primary screen). System: RAW264.7 G9 macrophages from mouse bearing reporters for p65 (GFP) and the Tnf promoter (mCherry). Knock-down reagent: siRNA pool against mouse genes, 100 nM. Duration: 16 h of LPS stimulation, after 2 days of siRNA transfection. Challenge: bacterial lipopolysaccharide (Salmonella minnesota R595), 10 ng/ml. Measurement: 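Imaged Tnf reporter mCherry in nuclei, minus background, normalised per plate to the median and expressed as robust z-scores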. Direction: Tnf reporter robust z-score: higher = stronger Tnf promoter reporter signal after LPS. Hit rule: 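a well counts as active at a score of -1.3 or below (Tlr4 knock-down control median) or above 3 (raised signal); controls and wells holding fewer than 50 cells are excluded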. Calls: active = Tnf reporter clearly lowered or raised; inactive = no clear change in Tnf reporter.
The whole screen tested about 17,000 reagents; below is a random part of them. About 1,110 of all reagents (6.6%) count as active. 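Active means lowered or raised reporter signal; replicate intensities are raw and not normalised per plate.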 Entries without a mark were called inactive. Further read-outs or replicates are left out here.

How did the screen score Cfap20dc (CFAP20 domain containing)?
fewer than 50 cells in well: fewer than 50 cells per well; well left out of calls

What did the screen give for Depp1 (DEPP1 autophagy regulator)?
Tnf reporter robust z-score: -0.2; fewer than 50 cells in well: enough cells in well

How did the screen score Slc16a2?
Tnf reporter robust z-score: 1.39; fewer than 50 cells in well: enough cells in well

For Gpm6a (glycoprotein m6a), how do the results read?
Tnf reporter robust z-score: 0.52; fewer than 50 cells in well: enough cells in well

With Lhfpl1 (lipoma HMGIC fusion partner-like 1), how do the results read?
Tnf reporter robust z-score: 0.12; fewer than 50 cells in well: enough cells in well

For Dnai1 (dynein axonemal intermediate chain 1), what does the deposit list?
Tnf reporter robust z-score: -0.71; fewer than 50 cells in well: enough cells in well

What is on record for Apoa4 (apolipoprotein A-IV)?
Tnf reporter robust z-score: 2.47; fewer than 50 cells in well: enough cells in well

With Chrna6 (cholinergic receptor, nicotinic, alpha polypeptide 6), what was measured?
Tnf reporter robust z-score: -0.48; fewer than 50 cells in well: enough cells in well

For Pak2 (p21 (RAC1) activated kinase 2), what does the deposit list?
Tnf reporter robust z-score: -0.76; fewer than 50 cells in well: enough cells in well

With 3110009E18Rik (RIKEN cDNA 3110009E18 gene), what was measured?
fewer than 50 cells in well: fewer than 50 cells per well; well left out of calls

Which result is listed for Ppy (pancreatic polypeptide)?
fewer than 50 cells in well: fewer than 50 cells per well; well left out of calls

How did the screen score Adam6a (a disintegrin and metallopeptidase domain 6A)?
Tnf reporter robust z-score: -0.4; fewer than 50 cells in well: enough cells in well

For Stab1 (stabilin 1), what was measured?
Tnf reporter robust z-score: -0.88; fewer than 50 cells in well: enough cells in well

For Vcan (versican), how do the results read?
Tnf reporter robust z-score: 0.64; fewer than 50 cells in well: enough cells in well

With Hebp2 (heme binding protein 2), what does the deposit list?
Tnf reporter robust z-score: 0.62; fewer than 50 cells in well: enough cells in well

For Mgat3 (mannoside acetylglucosaminyltransferase 3), what does the deposit list?
Tnf reporter robust z-score: -0.61; fewer than 50 cells in well: enough cells in well

With 2210016L21Rik (RIKEN cDNA 2210016L21 gene), what was measured?
fewer than 50 cells in well: fewer than 50 cells per well; well left out of calls

What is on record for Kyat3 (kynurenine aminotransferase 3)?
Tnf reporter robust z-score: -1.11; fewer than 50 cells in well: enough cells in well

For Selenov (selenoprotein V), what was measured?
Tnf reporter robust z-score: 1.5; fewer than 50 cells in well: enough cells in well

With Ankrd46 (ankyrin repeat domain 46), how do the results read?
Tnf reporter robust z-score: 1.14; fewer than 50 cells in well: enough cells in well

What is on record for Snurf (SNRPN upstream reading frame)?
fewer than 50 cells in well: fewer than 50 cells per well; well left out of calls

Which result is listed for Hinfp (histone H4 transcription factor)?
Tnf reporter robust z-score: 0.19; fewer than 50 cells in well: enough cells in well

How did the screen score Sprr4 (small proline-rich protein 4)?
Tnf reporter robust z-score: 0.46; fewer than 50 cells in well: enough cells in well

Which result is listed for Esyt3 (extended synaptotagmin-like protein 3)?
fewer than 50 cells in well: fewer than 50 cells per well; well left out of calls

Which result is listed for 2210408O09Rik (retired record)?
Tnf reporter robust z-score: 1.82; fewer than 50 cells in well: enough cells in well

What did the screen give for Atxn2 (ataxin 2)?
Tnf reporter robust z-score: -0.53; fewer than 50 cells in well: enough cells in well

For Trdn (triadin), what does the deposit list?
Tnf reporter robust z-score: 1.03; fewer than 50 cells in well: enough cells in well
